{"source": "PubChem BioAssay AID272", "about": "(DTP/NCI, 2004)", "test_system": "Lewis lung carcinoma i.m., BDF1 mice, T/C %", "assay": "NCI In Vivo Anticancer Drug Screen. Data for tumor model Lewis Lung Carcinoma (intramuscular) in B6D2F1 (BDF1) mice", "protocol": "The antitumor activity of compounds was measured in mice bearing transplantable tumors. Survival or tumor size were measured and the results are expressed as the measurement made in the treated group (T) divided by the measurement made in the vehicle treated control group (C). The tumor model used in this assay is Lewis Lung Carcinoma (intramuscular) in B6D2F1 (BDF1) mice", "note": "Further values from the same series stand in other lists. Records with an inconclusive call do not appear."}
{"smiles": "CCc1nc(N)nc(N)c1-c1ccc(Cl)cc1", "values": [{"measurement": "T/C", "setting": "endpoint: mean tumor weight, dose: 32.0 mg/kg/injection, schedule: Q08DX002 (ip), vehicle: Klucel (hydroxypropylcellulose) (HPC), higher = larger tumour", "value": "114 % of control"}, {"measurement": "T/C", "setting": "endpoint: median survival time, dose: 4.0 mg/kg/injection, schedule: Q01DX009 (oral), vehicle: Klucel (hydroxypropylcellulose) (HPC), higher = longer survival", "value": "111 % of control"}, {"measurement": "T/C", "setting": "endpoint: median survival time, dose: 4.0 mg/kg/injection, schedule: Q06HX012 (ip), vehicle: Klucel (hydroxypropylcellulose) (HPC), higher = longer survival", "value": "121 % of control"}, {"measurement": "T/C", "setting": "endpoint: median survival time, dose: 8.0 mg/kg/injection, schedule: Q01DX009 (sc), vehicle: Klucel (hydroxypropylcellulose) (HPC), higher = longer survival", "value": "119 % of control"}, {"measurement": "T/C", "setting": "endpoint: median survival time, dose: 8.0 mg/kg/injection, schedule: Q06HX008 (ip), vehicle: Klucel (hydroxypropylcellulose) (HPC), higher = longer survival", "value": "111 % of control"}, {"measurement": "T/C", "setting": "endpoint: median survival time, dose: 16.0 mg/kg/injection, schedule: Q01DX001 (oral), vehicle: Klucel (hydroxypropylcellulose) (HPC), higher = longer survival", "value": "119 % of control"}, {"measurement": "T/C", "setting": "endpoint: median survival time, dose: 16.0 mg/kg/injection, schedule: Q01DX009 (ip), vehicle: Klucel (hydroxypropylcellulose) (HPC), higher = longer survival", "value": "114 % of control"}, {"measurement": "T/C", "setting": "endpoint: median survival time, dose: 16.0 mg/kg/injection, schedule: Q06HX004 (ip), vehicle: Klucel (hydroxypropylcellulose) (HPC), higher = longer survival", "value": "114 % of control"}, {"measurement": "T/C", "setting": "endpoint: median survival time, dose: 16.0 mg/kg/injection, schedule: Q06HX008 (ip), vehicle: Klucel (hydroxypropylcellulose) (HPC), higher = longer survival", "value": "114 % of control"}, {"measurement": "T/C", "setting": "endpoint: median survival time, dose: 16.0 mg/kg/injection, schedule: Q06HX012 (ip), vehicle: Klucel (hydroxypropylcellulose) (HPC), higher = longer survival", "value": "123 % of control"}, {"measurement": "T/C", "setting": "endpoint: median survival time, dose: 25.0 mg/kg/injection, schedule: Q01DX011 (ip), vehicle: steriod suspending solution, higher = longer survival", "value": "110 % of control"}, {"measurement": "T/C", "setting": "endpoint: median survival time, dose: 32.0 mg/kg/injection, schedule: Q01DX009 (ip), vehicle: Klucel (hydroxypropylcellulose) (HPC), higher = longer survival", "value": "119 % of control"}, {"measurement": "T/C", "setting": "endpoint: median survival time, dose: 32.0 mg/kg/injection, schedule: Q01DX009 (oral), vehicle: Klucel (hydroxypropylcellulose) (HPC), higher = longer survival", "value": "111 % of control"}, {"measurement": "T/C", "setting": "endpoint: median survival time, dose: 32.0 mg/kg/injection, schedule: Q01DX009 (sc), vehicle: Klucel (hydroxypropylcellulose) (HPC), higher = longer survival", "value": "123 % of control"}, {"measurement": "T/C", "setting": "endpoint: median survival time, dose: 64.0 mg/kg/injection, schedule: Q01DX001 (ip), vehicle: Klucel (hydroxypropylcellulose) (HPC), higher = longer survival", "value": "123 % of control"}, {"measurement": "T/C", "setting": "endpoint: median survival time, dose: 64.0 mg/kg/injection, schedule: Q08DX002 (ip), vehicle: Klucel (hydroxypropylcellulose) (HPC), higher = longer survival", "value": "121 % of control"}, {"measurement": "T/C", "setting": "endpoint: median survival time, dose: 128.0 mg/kg/injection, schedule: Q01DX001 (sc), vehicle: Klucel (hydroxypropylcellulose) (HPC), higher = longer survival", "value": "119 % of control"}, {"measurement": "T/C", "setting": "endpoint: median survival time, dose: 128.0 mg/kg/injection, schedule: Q04DX003 (ip), vehicle: Klucel (hydroxypropylcellulose) (HPC), higher = longer survival", "value": "119 % of control"}]}
